Here are results for 9 targets from the supplement of paper PMC12819154, “High-throughput peptide-centric local stability assay extends protein–ligand identification to membrane proteins, tissues and bacteria” (Nature Structural & Molecular Biology, 2025).

Chains of the proteins cited; added tags and fusions are not shown. Lines headed by an entry give the natural chain unless they say otherwise; changes in a name come on top.
UniProt Q92793, whole entry, looked up: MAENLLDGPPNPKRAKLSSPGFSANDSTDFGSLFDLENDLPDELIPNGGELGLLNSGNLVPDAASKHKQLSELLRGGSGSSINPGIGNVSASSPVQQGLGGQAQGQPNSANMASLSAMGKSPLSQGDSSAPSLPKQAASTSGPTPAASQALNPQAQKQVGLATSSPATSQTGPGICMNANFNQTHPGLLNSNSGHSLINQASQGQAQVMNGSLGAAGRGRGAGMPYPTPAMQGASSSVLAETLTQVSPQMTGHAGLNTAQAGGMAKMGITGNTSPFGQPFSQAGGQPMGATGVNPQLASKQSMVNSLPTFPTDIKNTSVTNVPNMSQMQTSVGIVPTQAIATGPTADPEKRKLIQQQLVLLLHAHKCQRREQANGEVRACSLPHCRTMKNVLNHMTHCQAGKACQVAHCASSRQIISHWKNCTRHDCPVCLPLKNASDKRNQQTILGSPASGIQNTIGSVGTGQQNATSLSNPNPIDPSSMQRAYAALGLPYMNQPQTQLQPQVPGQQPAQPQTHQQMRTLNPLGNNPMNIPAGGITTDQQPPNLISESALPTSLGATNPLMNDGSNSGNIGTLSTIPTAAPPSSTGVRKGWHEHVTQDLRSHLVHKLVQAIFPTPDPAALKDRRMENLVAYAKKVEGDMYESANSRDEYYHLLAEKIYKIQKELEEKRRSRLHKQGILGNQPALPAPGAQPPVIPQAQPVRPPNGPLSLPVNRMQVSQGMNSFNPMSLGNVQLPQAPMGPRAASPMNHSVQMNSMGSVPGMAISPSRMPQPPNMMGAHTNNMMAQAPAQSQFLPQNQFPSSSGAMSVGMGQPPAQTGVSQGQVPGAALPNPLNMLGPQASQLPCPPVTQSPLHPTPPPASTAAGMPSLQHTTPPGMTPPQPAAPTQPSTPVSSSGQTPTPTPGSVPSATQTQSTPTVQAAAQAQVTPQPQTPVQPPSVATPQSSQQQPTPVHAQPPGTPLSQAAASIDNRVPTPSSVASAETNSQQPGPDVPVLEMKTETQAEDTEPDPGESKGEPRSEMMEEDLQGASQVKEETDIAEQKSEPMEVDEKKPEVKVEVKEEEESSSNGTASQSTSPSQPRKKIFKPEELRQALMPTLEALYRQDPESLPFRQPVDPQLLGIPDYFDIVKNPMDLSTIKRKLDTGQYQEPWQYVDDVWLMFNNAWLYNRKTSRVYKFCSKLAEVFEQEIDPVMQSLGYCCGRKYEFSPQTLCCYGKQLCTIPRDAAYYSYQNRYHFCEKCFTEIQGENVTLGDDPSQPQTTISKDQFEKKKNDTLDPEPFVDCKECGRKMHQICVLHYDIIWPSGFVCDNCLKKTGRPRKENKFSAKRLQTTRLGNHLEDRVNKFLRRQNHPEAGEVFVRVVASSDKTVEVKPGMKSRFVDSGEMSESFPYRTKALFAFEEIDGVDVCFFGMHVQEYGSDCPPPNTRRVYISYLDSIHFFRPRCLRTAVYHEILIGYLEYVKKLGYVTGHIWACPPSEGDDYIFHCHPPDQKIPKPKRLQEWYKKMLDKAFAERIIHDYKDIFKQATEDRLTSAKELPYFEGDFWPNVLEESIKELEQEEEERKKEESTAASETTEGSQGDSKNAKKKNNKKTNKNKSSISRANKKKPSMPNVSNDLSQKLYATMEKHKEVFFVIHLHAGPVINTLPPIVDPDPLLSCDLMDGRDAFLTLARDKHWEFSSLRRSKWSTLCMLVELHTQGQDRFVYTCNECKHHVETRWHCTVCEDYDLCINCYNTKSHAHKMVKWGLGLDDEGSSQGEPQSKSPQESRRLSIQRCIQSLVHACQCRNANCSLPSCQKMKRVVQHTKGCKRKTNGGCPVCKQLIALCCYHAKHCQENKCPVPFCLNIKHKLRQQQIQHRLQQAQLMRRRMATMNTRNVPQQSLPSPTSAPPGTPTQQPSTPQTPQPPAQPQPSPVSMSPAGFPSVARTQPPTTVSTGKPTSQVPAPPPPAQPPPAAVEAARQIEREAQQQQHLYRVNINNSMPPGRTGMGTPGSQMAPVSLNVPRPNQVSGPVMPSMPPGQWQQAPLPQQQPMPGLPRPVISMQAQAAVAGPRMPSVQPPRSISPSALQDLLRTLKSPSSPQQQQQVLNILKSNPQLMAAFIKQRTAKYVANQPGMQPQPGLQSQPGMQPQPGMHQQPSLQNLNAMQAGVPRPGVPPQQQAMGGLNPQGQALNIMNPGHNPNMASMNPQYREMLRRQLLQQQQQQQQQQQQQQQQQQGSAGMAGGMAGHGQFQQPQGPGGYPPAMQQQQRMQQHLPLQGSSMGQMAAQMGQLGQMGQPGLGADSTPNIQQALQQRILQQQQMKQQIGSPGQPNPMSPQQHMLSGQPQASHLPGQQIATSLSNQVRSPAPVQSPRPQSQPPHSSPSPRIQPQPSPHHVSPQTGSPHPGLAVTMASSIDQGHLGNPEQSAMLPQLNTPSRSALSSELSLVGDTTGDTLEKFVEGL
UniProt Q8WXF0: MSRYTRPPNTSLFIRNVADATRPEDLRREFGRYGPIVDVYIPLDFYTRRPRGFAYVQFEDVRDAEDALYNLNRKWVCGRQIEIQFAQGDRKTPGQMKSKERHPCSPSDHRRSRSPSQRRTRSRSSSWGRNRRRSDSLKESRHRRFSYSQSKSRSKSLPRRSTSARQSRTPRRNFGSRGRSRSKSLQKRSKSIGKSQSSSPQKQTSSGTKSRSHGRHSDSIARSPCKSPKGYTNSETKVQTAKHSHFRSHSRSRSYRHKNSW
UniProt Q8TDB4: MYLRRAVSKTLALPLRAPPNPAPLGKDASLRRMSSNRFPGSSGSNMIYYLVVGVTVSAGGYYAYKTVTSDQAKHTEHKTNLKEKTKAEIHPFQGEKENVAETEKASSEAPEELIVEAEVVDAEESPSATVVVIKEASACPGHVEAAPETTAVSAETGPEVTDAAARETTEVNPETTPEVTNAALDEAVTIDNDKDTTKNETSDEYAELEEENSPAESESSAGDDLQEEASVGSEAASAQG
UniProt Q92600, whole entry: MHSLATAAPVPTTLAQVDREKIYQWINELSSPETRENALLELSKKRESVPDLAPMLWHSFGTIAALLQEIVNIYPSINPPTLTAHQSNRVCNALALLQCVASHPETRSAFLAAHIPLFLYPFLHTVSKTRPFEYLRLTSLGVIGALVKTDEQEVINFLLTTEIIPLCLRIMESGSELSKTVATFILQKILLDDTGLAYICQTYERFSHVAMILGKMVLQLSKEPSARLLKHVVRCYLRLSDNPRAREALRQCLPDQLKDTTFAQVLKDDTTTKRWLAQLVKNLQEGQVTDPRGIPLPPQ
UniProt Q8WUK0: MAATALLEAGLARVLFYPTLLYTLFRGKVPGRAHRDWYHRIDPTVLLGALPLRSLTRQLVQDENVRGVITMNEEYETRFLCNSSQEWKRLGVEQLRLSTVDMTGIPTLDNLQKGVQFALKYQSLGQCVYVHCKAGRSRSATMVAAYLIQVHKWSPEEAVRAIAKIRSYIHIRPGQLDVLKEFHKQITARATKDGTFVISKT
UniProt Q8TEX9: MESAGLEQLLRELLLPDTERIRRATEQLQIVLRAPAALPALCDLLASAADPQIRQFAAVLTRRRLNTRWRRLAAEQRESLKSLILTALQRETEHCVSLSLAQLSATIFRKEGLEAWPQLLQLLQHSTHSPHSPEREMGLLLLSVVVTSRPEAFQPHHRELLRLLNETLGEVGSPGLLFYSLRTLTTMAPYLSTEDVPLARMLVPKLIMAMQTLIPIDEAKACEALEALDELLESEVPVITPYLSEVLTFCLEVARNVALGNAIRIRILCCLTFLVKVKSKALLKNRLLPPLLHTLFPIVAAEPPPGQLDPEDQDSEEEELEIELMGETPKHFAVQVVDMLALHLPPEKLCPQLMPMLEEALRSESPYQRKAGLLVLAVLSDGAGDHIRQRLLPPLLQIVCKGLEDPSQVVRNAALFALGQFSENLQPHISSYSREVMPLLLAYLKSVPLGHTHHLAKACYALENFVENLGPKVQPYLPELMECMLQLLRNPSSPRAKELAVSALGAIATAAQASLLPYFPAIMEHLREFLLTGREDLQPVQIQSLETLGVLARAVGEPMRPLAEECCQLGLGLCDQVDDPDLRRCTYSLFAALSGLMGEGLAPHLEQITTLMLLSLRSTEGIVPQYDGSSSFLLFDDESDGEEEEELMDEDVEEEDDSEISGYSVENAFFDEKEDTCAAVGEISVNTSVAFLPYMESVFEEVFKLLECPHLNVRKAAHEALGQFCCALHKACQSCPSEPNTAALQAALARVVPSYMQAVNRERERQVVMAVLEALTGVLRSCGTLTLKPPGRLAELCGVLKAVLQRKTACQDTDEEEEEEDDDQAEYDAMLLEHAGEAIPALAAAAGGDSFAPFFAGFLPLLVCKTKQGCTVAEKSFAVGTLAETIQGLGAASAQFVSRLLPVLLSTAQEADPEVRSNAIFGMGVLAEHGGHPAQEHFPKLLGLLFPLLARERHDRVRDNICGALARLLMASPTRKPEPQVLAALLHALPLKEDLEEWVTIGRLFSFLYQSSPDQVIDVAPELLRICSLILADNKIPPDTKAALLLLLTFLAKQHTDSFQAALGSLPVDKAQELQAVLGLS
UniProt Q8TCY9: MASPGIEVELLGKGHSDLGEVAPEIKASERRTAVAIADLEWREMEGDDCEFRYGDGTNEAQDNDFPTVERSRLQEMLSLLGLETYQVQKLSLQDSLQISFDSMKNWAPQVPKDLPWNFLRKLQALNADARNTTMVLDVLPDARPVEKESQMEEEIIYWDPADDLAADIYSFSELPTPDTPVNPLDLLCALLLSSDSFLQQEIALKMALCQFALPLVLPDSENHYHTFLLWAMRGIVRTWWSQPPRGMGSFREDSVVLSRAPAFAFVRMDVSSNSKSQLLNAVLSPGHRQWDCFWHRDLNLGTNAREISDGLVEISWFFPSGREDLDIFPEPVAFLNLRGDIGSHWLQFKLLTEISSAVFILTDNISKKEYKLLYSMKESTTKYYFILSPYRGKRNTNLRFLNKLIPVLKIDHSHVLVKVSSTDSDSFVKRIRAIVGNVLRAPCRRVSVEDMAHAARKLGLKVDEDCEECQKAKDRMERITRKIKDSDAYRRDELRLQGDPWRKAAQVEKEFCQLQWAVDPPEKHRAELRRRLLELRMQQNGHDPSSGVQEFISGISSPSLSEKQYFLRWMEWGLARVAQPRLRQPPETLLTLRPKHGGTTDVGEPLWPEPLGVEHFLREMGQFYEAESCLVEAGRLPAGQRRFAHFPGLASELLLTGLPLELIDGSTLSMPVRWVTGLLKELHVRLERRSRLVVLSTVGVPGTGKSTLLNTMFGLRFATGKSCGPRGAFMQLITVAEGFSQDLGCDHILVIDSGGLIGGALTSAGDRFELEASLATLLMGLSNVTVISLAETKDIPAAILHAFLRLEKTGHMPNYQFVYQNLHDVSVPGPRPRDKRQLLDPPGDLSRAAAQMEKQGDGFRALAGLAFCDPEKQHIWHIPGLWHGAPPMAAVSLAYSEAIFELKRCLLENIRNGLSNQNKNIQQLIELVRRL
UniProt Q92466: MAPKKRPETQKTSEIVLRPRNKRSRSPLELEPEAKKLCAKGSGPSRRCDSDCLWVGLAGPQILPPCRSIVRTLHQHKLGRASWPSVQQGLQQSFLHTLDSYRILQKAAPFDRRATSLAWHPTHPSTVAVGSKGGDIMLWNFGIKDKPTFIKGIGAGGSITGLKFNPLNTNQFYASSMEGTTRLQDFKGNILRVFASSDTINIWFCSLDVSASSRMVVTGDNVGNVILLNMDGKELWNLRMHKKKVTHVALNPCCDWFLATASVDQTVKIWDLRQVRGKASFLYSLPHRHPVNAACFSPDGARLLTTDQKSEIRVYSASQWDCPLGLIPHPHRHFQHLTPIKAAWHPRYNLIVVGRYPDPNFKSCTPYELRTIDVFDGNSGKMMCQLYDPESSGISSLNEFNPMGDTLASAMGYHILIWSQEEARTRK

Some of the results follow. Most values lie at the level of the controls, where differences are scatter.

Compound in this test: CN[C@@H]1C[C@H]2O[C@@](C)([C@@H]1OC)n1c3ccccc3c3c4c(c5c6ccccc6n2c5c31)C(=O)NC4 [staurosporine]
The test can be described thus: log2 fold change of tryptic peptide abundance, ligand vs vehicle (limited proteolysis) (log2 ratio); higher = more trypsin-susceptible (destabilized). To be noted: ligand concentration: 20 uM; sample: K562 cleared lysate; digestion: 4 min, 22 C (HT-PELSA RT4min, Orbitrap Astral).
For the target “PIEZO1 (peptide sequence: VGPTDGTPEPQVELRPR, peptide start residue: 1848) (UniProt Q92508)”, the log2 fold change is 0.177.
Take “CREBBP (peptide sequence: SPAPVQSPRPQSQPPHSSPSPR, peptide start residue: 2345) (UniProt Q92793)”: the log2 fold change is -0.534.
In the case of “UniProt Q8WXF0 (peptide sequence: QIEIQFAQGDR, peptide start residue: 80)”, the log2 fold change is -0.0759.
Regarding “UniProt Q8TDB4 (peptide sequence: DASLRRMSSNR, peptide start residue: 27)”, the log2 fold change came out at 0.208.
Consider “UniProt Q92600 (peptide sequence: QCLPDQLK, peptide start residue: 251)”, for which the log2 fold change was 0.265.
Regarding “PTPMT1 (peptide sequence: AATALLEAGLAR, peptide start residue: 2) (UniProt Q8WUK0)”, the log2 fold change worked out at 0.5.
As to “IPO4 (peptide sequence: SVPLGHTHHLAK, peptide start residue: 446) (UniProt Q8TEX9)”, the log2 fold change was determined as 0.296.
As to “UniProt Q8TCY9 (peptide sequence: GHSDLGEVAPEIK, peptide start residue: 14)”, the log2 fold change is 0.492.
In the case of “DDB2 (peptide sequence: TSEIVLRPR, peptide start residue: 12) (UniProt Q92466)” it was -0.816.
